Reference: PMC3289600
These are yes or no findings as the source states them, for the method shown. Binding seen in cells or lysates may run through a third protein. Some binding calls cover weakened binding; strength is not graded here.

Assays:
[1] = molecular target: T1, E3-ubiquitin ligase TRIM24 (human (endogenous in hESCs)) (UniProt O15164); assay: co-IP; as a1, lysates of differentiating hESCs after RA addition (differentiation medium without FGF, 1 uM RA); immunoprecipitated with HDM2 or TRIM24 antibodies, Western blot
T1 sequence: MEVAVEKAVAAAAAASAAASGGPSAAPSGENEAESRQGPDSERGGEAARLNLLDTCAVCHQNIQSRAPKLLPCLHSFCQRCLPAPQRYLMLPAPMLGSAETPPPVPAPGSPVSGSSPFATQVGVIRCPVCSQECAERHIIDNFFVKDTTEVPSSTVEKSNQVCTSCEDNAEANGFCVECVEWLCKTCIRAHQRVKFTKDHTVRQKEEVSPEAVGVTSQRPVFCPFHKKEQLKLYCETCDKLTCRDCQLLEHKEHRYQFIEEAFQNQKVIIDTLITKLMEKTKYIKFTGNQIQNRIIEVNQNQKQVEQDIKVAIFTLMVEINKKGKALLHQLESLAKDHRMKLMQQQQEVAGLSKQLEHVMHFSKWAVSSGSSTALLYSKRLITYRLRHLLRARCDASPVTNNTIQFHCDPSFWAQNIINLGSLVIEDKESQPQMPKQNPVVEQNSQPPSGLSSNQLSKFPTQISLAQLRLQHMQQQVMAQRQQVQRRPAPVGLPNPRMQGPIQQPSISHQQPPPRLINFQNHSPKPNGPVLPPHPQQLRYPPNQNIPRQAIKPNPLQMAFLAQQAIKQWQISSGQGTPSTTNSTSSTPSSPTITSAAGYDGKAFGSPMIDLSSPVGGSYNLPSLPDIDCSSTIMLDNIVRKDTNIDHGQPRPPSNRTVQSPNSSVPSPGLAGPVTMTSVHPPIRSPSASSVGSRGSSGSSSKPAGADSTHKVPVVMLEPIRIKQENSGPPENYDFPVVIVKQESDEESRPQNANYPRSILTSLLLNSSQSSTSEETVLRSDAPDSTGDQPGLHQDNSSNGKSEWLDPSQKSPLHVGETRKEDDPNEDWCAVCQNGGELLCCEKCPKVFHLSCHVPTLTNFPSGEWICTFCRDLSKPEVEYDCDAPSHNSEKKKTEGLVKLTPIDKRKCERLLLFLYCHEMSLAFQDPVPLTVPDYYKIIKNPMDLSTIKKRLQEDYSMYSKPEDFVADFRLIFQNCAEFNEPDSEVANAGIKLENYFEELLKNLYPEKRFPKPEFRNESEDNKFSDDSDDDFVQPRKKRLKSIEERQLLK

[2] = molecular target: T1, E3-ubiquitin ligase TRIM24 (human (endogenous in hESCs)); assay: co-IP; endogenous proteins; hESCs in complete medium or treated with RA for up to 5 d, lysed in RIPA buffer; 0.5 mg lysate with 2.5 ug antibody (p53, HDM2 or TRIM24) overnight at 4 C, Protein A beads, washed twice with RIPA, Western blot

binding [2]: binds
Substance: tumor suppressor p53 (from UniProt P04637 1-393)
binding [1]: no binding (condition: after RA addition)
